Experimental data published in ChEMBL document CHEMBL4316593 (Eur J Med Chem, 2019).
The source gives many values for each of these; only a part stands here.

Experiments:
Assay type in all cases: cell-based
Settings in all cases: U-87MG ATCC
[1] = Inhibition of RTK/PI3K/AKT/mTOR signaling in human U87 cells assessed as down regulation of SCARA3 gene expression at cytotoxic IC50 measured after 48 hrs relative to control
[2] = Inhibition of RTK/PI3K/AKT/mTOR signaling in human U87 cells assessed as down regulation of ZNF766 gene expression at cytotoxic IC50 measured after 48 hrs relative to control
[3] = Inhibition of RTK/PI3K/AKT/mTOR signaling in human U87 cells assessed as down regulation of LRRC58 gene expression at cytotoxic IC50 measured after 48 hrs relative to control
[4] = Inhibition of RTK/PI3K/AKT/mTOR signaling in human U87 cells assessed as down regulation of CDK7 gene expression at cytotoxic IC50 measured after 48 hrs relative to control
[5] = Inhibition of RTK/PI3K/AKT/mTOR signaling in human U87 cells assessed as down regulation of IDI1 gene expression at cytotoxic IC50 measured after 48 hrs relative to control
[6] = Inhibition of RTK/PI3K/AKT/mTOR signaling in human U87 cells assessed as up regulation of transmembrane protein 39B gene expression at cytotoxic IC50 measured after 48 hrs relative to control
[7] = Inhibition of RTK/PI3K/AKT/mTOR signaling in human U87 cells assessed as down regulation of GSTO1 gene expression at cytotoxic IC50 measured after 48 hrs relative to control
[8] = Inhibition of RTK/PI3K/AKT/mTOR signaling in human U87 cells assessed as down regulation of TRIM24 gene expression at cytotoxic IC50 measured after 48 hrs relative to control
[9] = Inhibition of RTK/PI3K/AKT/mTOR signaling in human U87 cells assessed as up regulation of SMS gene expression at cytotoxic IC50 measured after 48 hrs relative to control
[10] = Inhibition of RTK/PI3K/AKT/mTOR signaling in human U87 cells assessed as down regulation of PHACTR2 gene expression at cytotoxic IC50 measured after 48 hrs relative to control
[11] = Inhibition of RTK/PI3K/AKT/mTOR signaling in human U87 cells assessed as down regulation of ELOF1 gene expression at cytotoxic IC50 measured after 48 hrs relative to control
[12] = Inhibition of RTK/PI3K/AKT/mTOR signaling in human U87 cells assessed as up regulation of coronin 2A gene expression at cytotoxic IC50 measured after 48 hrs relative to control
[13] = Inhibition of RTK/PI3K/AKT/mTOR signaling in human U87 cells assessed as up regulation of SEC61A1 gene expression at cytotoxic IC50 measured after 48 hrs relative to control
[14] = Inhibition of RTK/PI3K/AKT/mTOR signaling in human U87 cells assessed as up regulation of NRP1 gene expression at cytotoxic IC50 measured after 48 hrs relative to control
[15] = Inhibition of RTK/PI3K/AKT/mTOR signaling in human U87 cells assessed as up regulation of ADGRF1 gene expression at cytotoxic IC50 measured after 48 hrs relative to control
[16] = Inhibition of RTK/PI3K/AKT/mTOR signaling in human U87 cells assessed as up regulation of BCL2 like 2 gene expression at cytotoxic IC50 measured after 48 hrs relative to control
[17] = Inhibition of RTK/PI3K/AKT/mTOR signaling in human U87 cells assessed as down regulation of FAM46C gene expression at cytotoxic IC50 measured after 48 hrs relative to control
[18] = Inhibition of RTK/PI3K/AKT/mTOR signaling in human U87 cells assessed as down regulation of ST14 gene expression at cytotoxic IC50 measured after 48 hrs relative to control
[19] = Inhibition of RTK/PI3K/AKT/mTOR signaling in human U87 cells assessed as down regulation of TMEM127 gene expression at cytotoxic IC50 measured after 48 hrs relative to control
[20] = Inhibition of RTK/PI3K/AKT/mTOR signaling in human U87 cells assessed as up regulation of protein phosphatase 2 phosphatase activator gene expression at cytotoxic IC50 measured after 48 hrs relative to control
[21] = Inhibition of RTK/PI3K/AKT/mTOR signaling in human U87 cells assessed as down regulation of NMT1 gene expression at cytotoxic IC50 measured after 48 hrs relative to control
[22] = Inhibition of RTK/PI3K/AKT/mTOR signaling in human U87 cells assessed as down regulation of ZFAND3 gene expression at cytotoxic IC50 measured after 48 hrs relative to control
[23] = Inhibition of RTK/PI3K/AKT/mTOR signaling in human U87 cells assessed as up regulation of SLC7A2 gene expression at cytotoxic IC50 measured after 48 hrs relative to control
[24] = Inhibition of RTK/PI3K/AKT/mTOR signaling in human U87 cells assessed as down regulation of C9orf78 gene expression at cytotoxic IC50 measured after 48 hrs relative to control
[25] = Inhibition of RTK/PI3K/AKT/mTOR signaling in human U87 cells assessed as up regulation of NAT9 gene expression at cytotoxic IC50 measured after 48 hrs relative to control
[26] = Inhibition of RTK/PI3K/AKT/mTOR signaling in human U87 cells assessed as up regulation of microtubule-actin crosslinking factor 1 gene expression at cytotoxic IC50 measured after 48 hrs relative to control
[27] = Inhibition of RTK/PI3K/AKT/mTOR signaling in human U87 cells assessed as up regulation of MSLN gene expression at cytotoxic IC50 measured after 48 hrs relative to control
[28] = Inhibition of RTK/PI3K/AKT/mTOR signaling in human U87 cells assessed as up regulation of fatty acid desaturase 3 gene expression at cytotoxic IC50 measured after 48 hrs relative to control
[29] = Inhibition of RTK/PI3K/AKT/mTOR signaling in human U87 cells assessed as up regulation of nuclear factor I C gene expression at cytotoxic IC50 measured after 48 hrs relative to control
[30] = Inhibition of RTK/PI3K/AKT/mTOR signaling in human U87 cells assessed as down regulation of SERINC1 gene expression at cytotoxic IC50 measured after 48 hrs relative to control
[31] = Inhibition of RTK/PI3K/AKT/mTOR signaling in human U87 cells assessed as up regulation of ribosomal protein S6 kinase A5 gene expression at cytotoxic IC50 measured after 48 hrs relative to control
[32] = Inhibition of RTK/PI3K/AKT/mTOR signaling in human U87 cells assessed as down regulation of BROX gene expression at cytotoxic IC50 measured after 48 hrs relative to control

## CC(=O)C(=NNc1ccccc1C#N)C(C)=O
[1]
  log2FC: -1.03
[2]
  log2FC: -0.923
[3]
  log2FC: -0.968
[4]
  log2FC: -0.832
[5]
  log2FC: -1.2
[6]
  log2FC: 0.797
[7]
  log2FC: -0.617
[8]
  log2FC: -0.614
[9]
  log2FC: 0.49
[10]
  log2FC: -0.866
[11]
  log2FC: -0.856
[12]
  log2FC: 0.968
[13]
  log2FC: 0.53
[14]
  log2FC: 3.4
[15]
  log2FC: 3.07
[16]
  log2FC: 0.801
[17]
  log2FC: -1.19
[18]
  log2FC: -0.535
[19]
  log2FC: -0.558
[20]
  log2FC: 0.775
[21]
  log2FC: -0.373
[22]
  log2FC: -0.418
[23]
  log2FC: 2.1
[24]
  log2FC: -1.02
[25]
  log2FC: 0.624
[26]
  log2FC: 1.16
[27]
  log2FC: 1.78
[28]
  log2FC: 1.2
[29]
  log2FC: 1.17
[30]
  log2FC: -0.625
[31]
  log2FC: 1.34
[32]
  log2FC: -0.636
